These are yes or no findings as the source states them, for the method shown. In cells and extracts the contact can be indirect. These calls come from enrichment with a bait or labelling near it, and not all partners need be listed. Tags and fused reporters may be left off the sequences shown.
Experiments:
[1] = biological target: T1, MCT1 (monocarboxylate transporter 1), endogenous (human), P53985; experiment: tandem affinity purification, mass spectrometry; settings: remark: other sources report otherwise
T1 chain: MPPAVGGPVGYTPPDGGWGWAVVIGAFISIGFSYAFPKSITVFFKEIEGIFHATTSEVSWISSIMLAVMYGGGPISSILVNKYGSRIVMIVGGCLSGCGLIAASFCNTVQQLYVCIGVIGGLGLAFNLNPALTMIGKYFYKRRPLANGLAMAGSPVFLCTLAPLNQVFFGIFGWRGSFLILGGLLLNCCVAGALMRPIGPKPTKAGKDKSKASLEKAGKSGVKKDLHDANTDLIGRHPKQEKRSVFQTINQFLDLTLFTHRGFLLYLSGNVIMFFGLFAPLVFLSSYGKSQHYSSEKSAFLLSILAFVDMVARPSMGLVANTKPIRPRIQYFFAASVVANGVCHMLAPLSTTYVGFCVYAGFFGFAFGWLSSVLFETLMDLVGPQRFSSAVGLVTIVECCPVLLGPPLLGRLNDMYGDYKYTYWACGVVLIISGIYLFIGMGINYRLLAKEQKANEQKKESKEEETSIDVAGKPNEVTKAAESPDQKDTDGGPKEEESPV

[2] = biological target: T1, MCT1 (monocarboxylate transporter 1), …; experiment: tandem affinity purification (Strep, then Flag) from HEK 293T cells, mass spectrometry; settings: remark: other sources report otherwise

binding [1]: binds
binding [2]: binds
B1: Strep-Flag tagged CRBN (CRBN-SF), Q96SW2 1-442 (protein, human, UniProt Q96SW2 1-442, looked up, not shown: small tags and cut ends)
chain: MAGEGDQQDAAHNMGNHLPLLPAESEEEDEMEVEDQDSKEAKKPNIINFDTSLPTSHTYLGADMEEFHGRTLHDDDSCQVIPVLPQVMMILIPGQTLPLQLFHPQEVSMVRNLIQKDRTFAVLAYSNVQEREAQFGTTAEIYAYREEQDFGIEIVKVKAIGRQRFKVLELRTQSDGIQQAKVQILPECVLPSTMSAVQLESLNKCQIFPSKPVSREDQCSYKWWQKYQKRKFHCANLTSWPRWLYSLYDAETLMDRIKKQLREWDENLKDDSLPSNPIDFSYRVAACLPIDDVLRIQLLKIGSAIQRLRCELDIMNKCTSLCCKQCQETEITTKNEIFSLSLCGPMAAYVNPHGYVHETLTVYKACNLNLIGRPSTEHSWFPGYAWTVAQCKICASHIGWKFTATKKDMSPQKFWGLTRSALLPTIPDTEDEISPDKVILCL
